These results are taken from doi:10.1101/2023.12.20.572542 (bioRxiv, 2023).

One experiment addresses LRRC52 (γ2)-mCherry-FLAG (UniProt Q8N7C0). The experiment is described as follows: SEC. (In general: SEC sorts molecules by how far they enter the pores of the column.)
Experiment [1] deals with LRRD of γ2 (residues 1-244)-mCherry-FLAG (UniProt Q8N7C0). Nature of the experiment: SEC.
Experiment [2] has as its target LRRD of γ4 (residues 1-247)-mCherry-FLAG (UniProt Q5VT99). Nature of the experiment: SEC.
A further experiment addresses LRRC38 (γ4)-mCherry-FLAG (UniProt Q5VT99). The experiment is described as follows: SEC.
The next experiment concerns the target LRRC55 (γ3)-mCherry-FLAG (UniProt Q6ZSA7). The experiment is described as follows: SEC.
In experiment [3] the target is T1, sp9C1-eGFP-twinstrep (sea urchin ortholog of SLC9C1) (sea urchin) (UniProt A3RL54).
T1 sequence: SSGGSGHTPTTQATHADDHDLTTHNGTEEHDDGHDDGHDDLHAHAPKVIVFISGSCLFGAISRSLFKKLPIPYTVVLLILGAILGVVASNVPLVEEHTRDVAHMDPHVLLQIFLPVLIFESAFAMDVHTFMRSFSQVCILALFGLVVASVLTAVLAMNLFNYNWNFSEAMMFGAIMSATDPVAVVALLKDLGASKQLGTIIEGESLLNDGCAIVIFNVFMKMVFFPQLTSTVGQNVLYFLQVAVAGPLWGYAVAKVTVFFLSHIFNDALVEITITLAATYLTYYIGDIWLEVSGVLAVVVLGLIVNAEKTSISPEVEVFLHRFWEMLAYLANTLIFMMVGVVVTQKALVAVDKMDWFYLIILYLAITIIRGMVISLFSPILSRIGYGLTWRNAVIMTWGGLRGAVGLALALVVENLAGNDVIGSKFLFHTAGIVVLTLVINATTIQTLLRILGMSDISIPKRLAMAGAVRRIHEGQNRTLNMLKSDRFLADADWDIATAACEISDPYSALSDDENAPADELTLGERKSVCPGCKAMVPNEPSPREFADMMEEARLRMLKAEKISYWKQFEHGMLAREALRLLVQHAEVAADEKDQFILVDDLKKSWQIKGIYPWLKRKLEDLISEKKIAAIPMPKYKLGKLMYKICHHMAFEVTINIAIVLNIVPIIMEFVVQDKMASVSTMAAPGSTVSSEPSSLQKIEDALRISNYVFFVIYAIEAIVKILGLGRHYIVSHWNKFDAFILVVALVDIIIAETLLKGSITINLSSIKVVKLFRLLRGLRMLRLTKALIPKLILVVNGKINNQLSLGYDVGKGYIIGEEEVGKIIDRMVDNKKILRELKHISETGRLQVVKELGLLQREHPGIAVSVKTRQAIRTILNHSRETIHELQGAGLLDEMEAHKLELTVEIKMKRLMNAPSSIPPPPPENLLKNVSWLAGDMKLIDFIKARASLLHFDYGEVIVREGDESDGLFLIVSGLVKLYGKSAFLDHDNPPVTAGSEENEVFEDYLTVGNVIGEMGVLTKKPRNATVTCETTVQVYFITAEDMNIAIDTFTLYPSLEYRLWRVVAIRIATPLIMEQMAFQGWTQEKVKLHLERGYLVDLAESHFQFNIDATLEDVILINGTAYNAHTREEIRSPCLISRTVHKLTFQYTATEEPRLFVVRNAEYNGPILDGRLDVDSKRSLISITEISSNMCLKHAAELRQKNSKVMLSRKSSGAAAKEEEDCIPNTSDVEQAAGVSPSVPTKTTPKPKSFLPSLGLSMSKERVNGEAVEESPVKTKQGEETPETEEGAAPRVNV

These are yes or no findings as the source states them, for the method shown. Some results given as binding are weak or reduced against the parent protein; the word gives no strength. Sequences can lack the tags named with a protein.

B1: LRRC52 (γ2)-mCherry-FLAG (protein, UniProt Q8N7C0 24-313)
chain: SKCPNNCLCQAQEVICTGKQLTEYPLDIPLNTRRLFLNENRITSLPAMHLGLLSDLVYLDCQNNRIREVMDYTFIGVFKLIYLDLSSNNLTSISPFTFSVLSNLVQLNIANNPHLLSLHKFTFANTTSLRYLDLRNTGLQTLDSAALYHLTTLETLFLSGNPWKCNCSFLDFAIFLIVFHMDPSDDLNATCVEPTELTGWPITRVGNPLRYMCITHLDHKDYIFLLLIGFCIFAAGTVAAWLTGVCAVLYQNTRHKSSEEDEDEAGTRVEVSRRIFQTQTSSVQEFPQLI
B1: in the experiment with LRRC52 (γ2)-mCherry-FLAG, the binding entry was “binds”.

B2: LRRD of γ2 (residues 1-244)-mCherry-FLAG (domain or fragment, UniProt Q8N7C0 24-244)
chain: SKCPNNCLCQAQEVICTGKQLTEYPLDIPLNTRRLFLNENRITSLPAMHLGLLSDLVYLDCQNNRIREVMDYTFIGVFKLIYLDLSSNNLTSISPFTFSVLSNLVQLNIANNPHLLSLHKFTFANTTSLRYLDLRNTGLQTLDSAALYHLTTLETLFLSGNPWKCNCSFLDFAIFLIVFHMDPSDDLNATCVEPTELTGWPITRVGNPLRYMCITHLDHKD
In the case of B2, the binding result in experiment [1] was “binds”.

B3: LRRD of γ4 (residues 1-247)-mCherry-FLAG (domain or fragment, UniProt Q5VT99 28-247)
chain: CPAGCACTDPHTVDCRDRGLPSVPDPFPLDVRKLLVAGNRIQRIPEDFFIFYGDLVYLDFRNNSLRSLEEGTFSGSAKLVFLDLSYNNLTQLGAGAFRSAGRLVKLSLANNNLVGVHEDAFETLESLQVLELNDNNLRSLSVAALAALPALRSLRLDGNPWLCDCDFAHLFSWIQENASKLPKGLDEIQCSLPMESRRISLRELSEASFSECRFSLSLTD
Consider B3, for which the binding result in experiment [2] is reported as “binds”.

B4: LRRC38 (γ4)-mCherry-FLAG (protein, UniProt Q5VT99 28-294)
chain: CPAGCACTDPHTVDCRDRGLPSVPDPFPLDVRKLLVAGNRIQRIPEDFFIFYGDLVYLDFRNNSLRSLEEGTFSGSAKLVFLDLSYNNLTQLGAGAFRSAGRLVKLSLANNNLVGVHEDAFETLESLQVLELNDNNLRSLSVAALAALPALRSLRLDGNPWLCDCDFAHLFSWIQENASKLPKGLDEIQCSLPMESRRISLRELSEASFSECRFSLSLTDLCIIIFSGVAVSIAAIISSFFLATVVQCLQRCAPNKDAEDEDEDKDD
As to B4, the binding entry with LRRC38 (γ4)-mCherry-FLAG is reported as “binds”.

B5: LRRC55 (γ3)-mCherry-FLAG (protein, UniProt Q6ZSA7 35-298)
chain: GTSCPVLCTCRNQVVDCSSQRLFSVPPDLPMDTRNLSLAHNRITAVPPGYLTCYMELQVLDLHNNSLMELPRGLFLHAKRLAHLDLSYNNFSHVPADMFQEAHGLVHIDLSHNPWLRRVHPQAFQGLMQLRDLDLSYGGLAFLSLEALEGLPGLVTLQIGGNPWVCGCTMEPLLKWLRNRIQRCTADSQLAECRGPPEVEGAPLFSLTEESFKACHLTLTLDDYLFIAFVGFVVSIASVATNFLLGITANCCHRWSKASEEEEI
As to B5, the binding result in the experiment with LRRC55 (γ3)-mCherry-FLAG is given as “binds”.

B6: sp9C1-mCherry-FLAG (sea urchin ortholog of SLC9C1) (protein, UniProt A3RL54 30-1325)
chain: T1 sequence
Turning to B6, the binding entry in experiment [3] is “binds”.
